Measured values from PMC7616277.
Results are given in words; binding and its absence hold for the method and conditions named. In cells and extracts the contact can be indirect. Some results given as binding are weak or reduced against the parent protein; the word gives no strength.

Amino acid sequences for entries named in this document (tags omitted).
UniProt P48484: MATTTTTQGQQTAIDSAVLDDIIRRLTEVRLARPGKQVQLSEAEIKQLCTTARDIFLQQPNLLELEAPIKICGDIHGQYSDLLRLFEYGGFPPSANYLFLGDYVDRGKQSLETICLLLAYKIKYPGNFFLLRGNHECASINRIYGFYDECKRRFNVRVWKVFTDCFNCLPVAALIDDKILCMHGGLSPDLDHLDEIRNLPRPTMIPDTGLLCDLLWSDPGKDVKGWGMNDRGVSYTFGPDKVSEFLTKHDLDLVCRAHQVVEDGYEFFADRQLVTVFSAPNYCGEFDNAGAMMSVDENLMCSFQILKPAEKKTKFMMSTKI

Molecular target: TOPP4-3xFLAG (Arabidopsis thaliana) (UniProt P48484)
Assay: co-IP; transient co-expression in N. benthamiana leaves; lysate incubated with anti-FLAG M2 Affinity Gel 2 hours at 4°C (150 mM NaCl, 0.2 % Tween-20); blots with anti-FLAG M2-HRP and anti-GFP; three replicates

binding: binds
B1: APRF1-mVENUS (protein, UniProt Q9LYK6 1-330)
chain: MSLTELDDGLVRRMAMGAVFSDFGGKIHSVGFHRTDDLLVTSSEDDSLRLFDIANAKQLKITYHKKHGTDRVCFTHHPSSLICSSRYNLESTGESLRYLSMYDNRILRYFKGHKDRVVSLCMSPINDSFMSGSLDRSVRLWDLRVNACQGILHLRGRPAVAYDQQGLVFAIAMEGGAVKLFDSRCYDKGPFDTFLVGGDTAEVNDIKFSNDGKSMLLTTTNNNIYVLDAYRGEKKCGFSLEPSQGTPIEATFTPDGKYVLSGSGDGTLHAWNIENPSEVARWENNIGVVSCLKWAPRRAMFVAASTVLTFWIPNDGESPAPADPPTDQQQ
